Measurements reported in PubChem BioAssay AID504791 (Drosophila RNAi Screening Center, 2011)

Assay: 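Genes of the fly required for silencing by miRNA, siRNA or endo-siRNA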 (primary screen)
Cells: Drosophila S2-derived reporter cells
Knock-down reagent: long dsRNA against Drosophila genes, about 150-250 ng dsRNA per well (siRNA assay); about 80-120 ng (miRNA assay)
Time to read-out: about 5 days (siRNA assay); about 4 days (miRNA assay)
Conditions: copper sulfate induction of reporters: 25 µM (siRNA assay); 200 mM stated (miRNA assay), 1-2 days before reading
Read-out: 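Per-well ratio of Renilla over firefly light, expressed relative to that plate's average ratio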
Hit rule: 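a well was a first-pass pick when its plate-scaled ratio rose above 1.5 (siRNA assay) or 1.6 (miRNA assay), or dropped below 0.6; a gene counted only if two separate dsRNAs agreed on retest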
The screen tested about 23,000 reagents; shown is a random part of those with a known target gene and a result. Over the whole deposit, 199 (0.86%) were called active. 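Plate-scaled ratios behind the calls are not deposited; printed light signals are raw; many rows marked increased or decreased are still called inactive.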 Unmarked entries are inactive. Reagents against one gene are numbered here. Names joined by + are all predicted targets of the reagent. No sequences are given here. Not stated in the record: the direction of the score.

target gene | reagent no. | stable siRNA reporter change | miRNA reporter change | stable assay Renilla, run 1 (luminescence) | stable assay firefly, run 1 (luminescence)
Glg1 | 1 | – | – | 8222 | 4.06e5
Glg1 | 2 | – | – | 6755 | 5.24e5
Glg1 | 3 | – | – | 7882 | 5.38e5
Osi22 | 1 | – | – | 8733 | 4.66e5
GstE14 | 1 | – | – | 5542 | 3.13e5
Grl62c | 1 | – | – | 4911 | 3.34e5
Grx5 | 1 | – | – | 5152 | 4.73e5
CG14006 | 1 | – | – | 7183 | 3.63e5
Skadu | 1 | – | – | 5523 | 4.31e5
Rassf | 1 | – | – | 8894 | 3.03e5
Rassf | 2 | – | reporter ratio raised past the hit cutoff | – | –
gukh | 1 | – | – | 7012 | 4.03e5
gukh | 2 | – | – | 7306 | 2.79e5
gukh | 3 | – | – | 9486 | 4.43e5
CG7402 | 1 | – | – | 6854 | 3.32e5
CG7386 | 1 | – | – | 7098 | 4.32e5
CheA87a | 1 | – | – | 7167 | 3.52e5
veg (retired record) | 1 | – | – | 6386 | 2.97e5
TM9SF2 | 1 | – | reporter ratio lowered past the hit cutoff | 8225 | 3.65e5
Dso1 | 1 | – | – | 8776 | 4.10e5
CG13681 (retired record) | 1 | – | – | 4944 | 4.92e5
CG13681 (retired record) | 2 | – | – | 4796 | 3.91e5
CG13681 (retired record) | 3 | – | – | 6283 | 3.42e5
CG13681 (retired record) | 4 | – | – | 5560 | 2.95e5
CG13681 (retired record) | 5 | – | – | 6115 | 3.71e5
CG13681 (retired record) | 6 | – | – | 8416 | 3.64e5
Rbp1-like | 1 | – | – | 3991 | 2.85e5
Rbp1-like | 2 | – | – | 9945 | 7.45e5
TTLL1B | 1 | – | – | 5548 | 3.91e5
Tfb5 + CG31917 | 1 | – | reporter ratio lowered past the hit cutoff (active) | – | –
CG1764 | 1 | – | – | 7131 | 4.09e5
l(1)G0004 | 1 | – | – | 8215 | 5.21e5
Cln3 | 1 | – | – | 7825 | 3.85e5
CG15115 | 1 | – | – | 4043 | 3.37e5
Or74a | 1 | – | – | 7592 | 4.17e5
bft (retired record) | 1 | – | – | 8123 | 4.27e5
Ing3 | 1 | – | – | 5119 | 3.87e5
CG1142 | 1 | – | – | 5907 | 4.77e5
CG30177 | 1 | – | – | 4068 | 3.75e5
Root | 1 | – | – | 6938 | 3.33e5
CG1785 | 1 | – | – | 8538 | 4.81e5
CG10274 | 1 | – | – | 7805 | 4.37e5
aop | 1 | – | reporter ratio lowered past the hit cutoff | 6550 | 2.97e5
aop | 2 | – | – | 2875 | 2.30e5
kcc | 1 | – | – | 5583 | 1.21e6
kcc | 2 | – | – | 7363 | 3.40e5
chp | 1 | – | – | 6483 | 5.05e5
CG32240 | 1 | – | – | 4359 | 4.02e5
Grl40a | 1 | – | – | 4991 | 2.92e5
Uvrag | 1 | – | – | 48597 | 9.67e5
Hs6st | 1 | – | – | 7091 | 5.06e5
Hs6st | 2 | – | – | 7335 | 4.02e5
Hs6st | 3 | – | – | 5848 | 4.73e5
Hs6st | 4 | – | – | 9459 | 4.06e5
CG12782 | 1 | – | – | 6144 | 3.76e5
Flad2 | 1 | – | – | 6932 | 4.00e5
Ect3 | 1 | – | – | 7391 | 5.59e5
GatB | 1 | – | – | 6752 | 3.08e5
sff | 1 | – | – | 8044 | 3.00e5
mir-210 (retired record) | 1 | – | – | 4975 | 3.60e5
Cpr92A | 1 | – | – | 7059 | 4.03e5
GstT4 | 1 | – | – | 7558 | 4.29e5
CG43689 | 1 | – | – | 4760 | 2.62e5
CG43689 | 2 | – | – | 4680 | 4.34e5
CG43689 | 3 | – | – | 4779 | 3.02e5
CG3598 | 1 | – | – | 6875 | 3.84e5
RpL21 | 1 | reporter ratio raised past the hit cutoff (active) | – | 6895 | 2.55e5
Tango9 | 1 | – | – | 9027 | 4.63e5
Targ3 | 1 | – | – | 8140 | 7.15e5
CG33458 | 1 | – | – | 3943 | 3.79e5
CG17732 | 1 | – | – | 7099 | 3.95e5
CG34188 | 1 | – | – | 7336 | 3.89e5
Hex-A | 1 | – | – | 4616 | 3.71e5
shg | 1 | – | – | 63680 | 3.77e5
tfc | 1 | – | – | 6547 | 4.97e5
tfc | 2 | – | – | 5016 | 3.08e5
tfc | 3 | – | – | 10690 | 3.31e5
tfc | 4 | – | – | 8181 | 5.17e5
CG9426 | 1 | – | – | 7052 | 4.57e5
CG13999 | 1 | – | – | 9126 | 5.70e5
CG17202 | 1 | – | – | 4335 | 2.20e5
CG17202 | 2 | – | – | 4468 | 3.99e5
Cyt-b5-r | 1 | – | – | 9326 | 5.14e5

As entered above:
For “stable assay Renilla, run 1 (luminescence)”, Grl62c has 4911
For “stable assay firefly, run 1 (luminescence)”, Glg1 #3 shows 5.38e5
For “stable assay Renilla, run 1 (luminescence)”, GstE14 reads 5542
CG9426, stable assay firefly, run 1 (luminescence): 4.57e5
For “stable assay firefly, run 1 (luminescence)”, tfc #3 has 3.31e5
Under “stable assay Renilla, run 1 (luminescence)”, Cyt-b5-r has 9326
